About 5,900 (2.8%) of roughly 210,000 compounds were called active. Not shown: some 5% with an inconclusive outcome. Calls follow the shape of the dose curve; as a rule, active = well fitted activation curve with a large enough effect; inconclusive = small, poorly fitted or top-dose-only effect; inactive = no such curve, though single readings can be large or run the other way. The entries are a selection whose mix differs from that of the whole data set. The source gives no active or inactive call for entries shown without one.
experiment: qHTS Assay for Enhancers of SMN2 Splice Variant Expression; conditions: HEK293 SMN2-luciferase splicing reporter, luminescence, 30-36 h; activity change, positive = activation: at 46.1 µM (top of the series) unless noted; also: nearly all actives have a fitted effect of over 55% in size; as to activity change, positive = activation: % of control where 0% means no effect
Method in brief: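 HEK293 cells carry an SMN2 minigene-luciferase reporter in which exon 7 inclusion puts luciferase in frame. Cells were seeded at 2000 cells/well, attached for 10-12 hours, then exposed to compounds for 30-36 hours at 37C before ONE-Glo luminescence.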
Potency is read from the fitted curve at half-maximal effect.

| SMILES | activity change, positive = activation | Potency |
| --- | --- | --- |
| CCOc1ccc(NS(=O)(=O)c2ccc(OCC(=O)N3CCCC3)cc2)cc1 | 30.7% |  |
| COc1ccc(C(=O)NCCSC2CCCCC2)cc1 |  | active: 15.8 µM |
| O=[N+]([O-])c1cc(/C=N/Nc2nc3ccccc3[nH]2)c(O)cc1O | inactive: -65.2% |  |
| Nc1c(Cl)ncnc1N/N=C/c1ccccn1 | inactive: -81.4% |  |
| Cc1nc([N+](=O)[O-])c(Br)n1CC(=O)c1ccccc1 | 37% |  |
| CC1(C)N(O)CC(c2cccs2)=[N+]1[O-] | 32.8% |  |
| O=C(Nc1ccc(Cl)c(S(=O)(=O)N2CCOCC2)c1)c1cn2ccccc2n1 | inactive: -49.6% |  |
| CCCOC(=O)c1ccc(Oc2c(-c3ccc(OCC)cc3O)n[nH]c2C)cc1 | -78.1% |  |
| c1ccc2cc(-c3cc4ccccn4c3)ccc2c1 |  | active: 11.2 µM |
| CC1=C(/C=C/C(C)=C/C=C/C(C)=C/C(=O)Nc2ccc(O)cc2)C(C)(C)CCC1 |  | inactive |
| Cc1ccc(NS(=O)(=O)c2c(C)nc3sccn3c2=O)c(Cl)c1 | 30.5% |  |
| O=S(=O)(c1cnc[nH]1)N1CCc2ccccc21 | 47% |  |
| COc1ccc(OC)c(NC(=O)C2CCN(S(C)(=O)=O)CC2)c1 | 31.1% |  |
| O=C(NNC(=O)c1cccc(-n2cnnn2)c1)c1ccccc1 | inactive: -3.04% |  |
| CCCCOc1ccc(S(=O)(=O)NNC(=O)c2cc3ccccc3o2)cc1 | -61.8% |  |
| CCN(CC)S(=O)(=O)c1ccc2c(c1)C(=NO)c1cc(S(=O)(=O)N(CC)CC)ccc1-2 | inactive: -92.1% |  |
| CCCn1c(=O)c2sccc2n2c(CCCC(=O)Nc3ccc(Oc4ccc(Cl)cc4)cc3)nnc12 | 47.9% |  |
| COc1ccc(C(=O)/C=C\N2CCOCC2)cc1 | 46.1% |  |
| CC(=O)c1oc2ccccc2c1NC(=O)CN1CCCCC1 | inactive: -33.4% |  |
| CSCCC(NC(=O)c1ccccc1)C(=O)NC1CCCC1 (configuration not stated) | 81.1% |  |
| CC(C)(C)n1nnnc1CN1CCN(C(c2ccccc2)c2ccccc2)CC1 | -113% |  |
| O=C1NC(Nc2ccccn2)(C(F)(F)F)C(=O)N1c1ccc(F)cc1 (configuration not stated) | 31.6% |  |

| SMILES | activity change, positive = activation | Potency |
| --- | --- | --- |
| COc1ccc(N(C)S(=O)(=O)c2ccc3c(c2)oc(=O)n3C)cc1 | 43.9% |  |
| O=C(COc1ccc(Cl)cc1)Nc1ccc2oc(-c3ccncc3)nc2c1 | 34.2% |  |
| CN(Cc1cccs1)C(=O)CSc1nc2ccccc2[nH]1 | 31.3% |  |
| Cc1ccc(NC(=O)c2ccccc2NC(=O)CCC(=O)O)cc1 | 62.5% |  |
| COCCn1c(=O)c(CCc2ccccc2)nc2cnc(Oc3cccc(Cl)c3)nc21 | inactive: -45.3% |  |
| CCOC(=O)/C(=C\C=C1/Sc2cc(OCC)c(OCC)cc2N1CC)C(C)=O | inactive: -46.8% |  |
| COC(=O)c1cc2nc(-c3ccccc3)cc(C)n2n1 | 16.6% |  |
| CCN(CC)c1ccc(/C=C2\C(=O)c3ccc(C(=O)O)cc3C2=O)cc1 | inactive: -8.86% |  |
| CCN(c1ccccc1)S(=O)(=O)c1ccc(Cl)c(C(=O)O)c1 | 33.4% |  |
| S=C(NCCc1ccccc1)Nc1cccc2cnccc12 | inactive: -59.3% |  |
| Cc1ccc(Nc2cc(C)nn2-c2nc(C)cc(C)n2)cc1 | inactive: -39.9% |  |
| Cc1ccccc1CSc1ccc(-c2ccc3c(c2)OCO3)nn1 | 114% |  |
| CCOC(=O)CN/C=C(\C#N)c1ccccc1 | inactive: -8.16% |  |
| CCOc1ccccc1NC(=O)Nc1ccc(Cl)cc1 | inactive: -20.6% |  |
| O=C(Cc1c(Sc2ccccc2)c2ccccc2n1Cc1ccccc1)NCCO | -69.8% |  |
| COc1cccc(OCCSc2nc(N)cc(N)n2)c1 | inactive: -63.1% |  |
| COc1ccc(Nc2oc(COc3ccc(C)cc3)nc2C#N)cc1 | inactive: -87.3% |  |
| COc1ccc2c(c1)CC/C(=C/c1ccncc1)C2=O | inactive: -58.1% |  |
| CCc1ccc(C2=NN(C(C)=O)C(c3ccco3)C2)cc1 (configuration not stated) |  | active: 12.6 µM |
| Cc1cc2ccccc2n1CCNC(=O)c1ccccc1 | inactive: -54.1% |  |
| Cc1ccc(-c2cc(-c3cccc(F)c3)n[nH]2)c(O)c1 |  | active: 14.1 µM |
| CC(=O)NC(C(=O)O)C(C)(C)SN=O (configuration not stated) | inactive: -3.19% |  |

| SMILES | activity change, positive = activation | Potency |
| --- | --- | --- |
| CCOC(=O)/C(C#N)=C\c1c(OCC)n(CC)c2ccccc12 | inactive: -14.6% |  |
| O=C(Nc1ccc(SC(F)(F)F)cc1)c1ccccn1 |  | active: 2.24 µM |
| O=C(Nc1ccc(N2CCCCC2)c(Cl)c1)c1cccnc1 |  | active: 12.6 µM |
| COc1cccc(OC)c1C(=O)Nc1ccccc1C(=O)N1CCOCC1 | 24.6% |  |
| C/C(=N\NC(=O)c1cccc(N/N=C(\C)c2cc(O)ccc2O)c1)c1cc(O)ccc1O | inactive: -56.1% |  |
| CCc1ccc(CNc2ccc(O)cc2)cc1 | 46.7% |  |
| Nc1c(C(=O)NCc2ccc3c(c2)OCO3)c2nc3ccccc3nc2n1CCCN1CCOCC1 | -60.3% |  |
| COc1ccc2c(c1)O[C@@H](c1ccc3c(c1)OCO3)[C@H](OC(=O)N[C@H](C)C1CCCCC1)C2=O | inactive: -1.22% |  |
| COCCn1c(C)cc(C2=NNC(=NC3CC3)SC2)c1C | inactive: -103% |  |
| O=C(COc1ccccc1)NC1CCN(Cc2ccccc2)CC1 | 43.1% |  |
| N#C/C(=N\Nc1ccc(F)cc1)C(=N)N1CCCCC1 | 254% |  |
| O=C(/C=C/c1cccc(Oc2ccccc2)c1)N1CCOCC1 | 201% |  |
| Cn1nnnc1SCC(=O)NCc1cccc(C(=O)O)c1 | 37.7% |  |
| C[C@@H]1O[C@H](O[C@@H]2[C@H](C)O[C@H](O[C@@H]3[C@H](C)O[C@H](O[C@H]4CC[C@]5(C)[C@@H](CC[C@@H]6[C@H]5C[C@@H](O)[C@]5(C)[C@@H](C7=CC(=O)OC7)CC[C@]65O)C4)C[C@@H]3O)C[C@@H]2O)C[C@H](O)[C@@H]1O | inactive: -81.8% [at 20.6 µM] |  |
| Nc1ccc2oc3ccccc3c2c1 |  | active: 11.2 µM |
| O=c1ccc2ccc(Oc3ccc([N+](=O)[O-])cc3[N+](=O)[O-])cc2o1 | 41.7% |  |
| CCOc1cc(NC(=O)c2ccco2)c(OCC)cc1NC(=O)c1cc(OC)c(OC)c(OC)c1 | 86.8% |  |
| CCCc1[nH]nc2c1C1(C(=O)N(C(C)C)c3ccccc31)C(C#N)=C(N)O2 (configuration not stated) | 36.2% |  |
| OC(CCN1CCOCC1)(c1ccc(Cl)cc1)C1CCCCC1 (configuration not stated) | 51.1% |  |
| CCOC(=O)C1CSc2[nH]c(=O)sc2C1c1ccccc1 (configuration not stated) | 20.4% |  |
| O=C(COC(=O)CNC(=O)c1ccco1)Nc1ccccc1OC(F)F | 30.3% |  |
| COCCNC(=S)N1CCC(C(=O)c2ccc3c(c2)OCCO3)CC1 | -15.5% |  |

Compounds listed so far that have an NH in an aromatic ring (7):

| SMILES | activity change, positive = activation | Potency |
| --- | --- | --- |
| O=[N+]([O-])c1cc(/C=N/Nc2nc3ccccc3[nH]2)c(O)cc1O | inactive: -65.2% |  |
| CCCOC(=O)c1ccc(Oc2c(-c3ccc(OCC)cc3O)n[nH]c2C)cc1 | -78.1% |  |
| O=S(=O)(c1cnc[nH]1)N1CCc2ccccc21 | 47% |  |
| CN(Cc1cccs1)C(=O)CSc1nc2ccccc2[nH]1 | 31.3% |  |
| Cc1ccc(-c2cc(-c3cccc(F)c3)n[nH]2)c(O)c1 |  | active: 14.1 µM |
| CCCc1[nH]nc2c1C1(C(=O)N(C(C)C)c3ccccc31)C(C#N)=C(N)O2 (configuration not stated) | 36.2% |  |
| CCOC(=O)C1CSc2[nH]c(=O)sc2C1c1ccccc1 (configuration not stated) | 20.4% |  |

The list goes on.

| SMILES | activity change, positive = activation | Potency |
| --- | --- | --- |
| Cc1cc(C)nc(Nc2n[nH]c(-c3ccc(C(C)(C)C)cc3)n2)n1 | inactive: -56% |  |
| Brc1ccc(-c2csc(N3CCOCC3)n2)cc1 | 66.1% |  |
| O=C(NC(=O)c1ccc(Cl)cc1)OC1CCCCC1 | inactive: 22% |  |
| Oc1ccc2ccccc2c1/C=N/Nc1nnc(-c2ncc[nH]2)c2ccccc12 | inactive: -116% |  |
| CNc1nc2cc([N+](=O)[O-])c([N+](=O)[O-])cc2nc1NC | -62.8% |  |
| CC(=O)c1ccc(NC(=O)COC(=O)c2c3c(nc4ccccc24)/C(=C\c2cccs2)CCC3)cc1 | -101% |  |
| Cc1ccc(-c2nc3ccsc3c(=O)o2)cc1 | inactive: 105% |  |
| Cc1ccc(-c2nc3cccnc3o2)cc1NC(=O)COc1ccc(Cl)cc1C | 52.7% |  |
| O=[N+]([O-])c1ccc(Nc2c3ccccc3nc3ccccc23)cc1 | -59.6% |  |
| CCc1c(C)sc(NC(=O)CC#N)c1C#N | 35.8% |  |
| CCOc1ccc(C(=O)NCCc2ccccc2)cc1 |  | active: 3.55 µM |
| CCc1ccc2[nH]c(=O)c(CN(CCCN3CCOCC3)C(=O)Nc3ccccc3)cc2c1 | 41.7% |  |
| O=S(=O)(c1ccc(NC(=S)NCCC(c2ccccc2)c2ccccc2)cc1)N1CCOCC1 | inactive: -55.1% |  |
| Nc1nc(Cl)nc2c1ncn2[C@@H]1O[C@H](CO)[C@H](O)[C@H]1O | inactive: -6.12% |  |
| CN(c1nc(-c2ccccc2)cs1)C1CCS(=O)(=O)C1 (configuration not stated) | 32.3% |  |
| COc1cccc(-c2nnc(SCCC(=O)O)n2C)c1 | 38.4% |  |
| O=C(c1ccc(F)cc1)N1CCN(c2ncccn2)CC1 | 24.4% |  |
| O=C(O)Cc1sc(Nc2ccc(F)cc2)nc1-c1cccs1 | 30.5% |  |
| Cc1ccc(-n2c(=O)c3sccc3n(Cc3cc(=O)n4cc(Cl)ccc4n3)c2=O)cc1F |  | active: 35.5 µM |
| COc1cc(C(=O)NC(=S)Nc2ccc(NC(=O)c3ccco3)cc2)cc(OC)c1OC | -10.1% |  |
| CC(/C=N/NC(=O)c1cccnc1)=C\c1ccccc1 | 47.7% |  |
| CCOc1ccccc1NC(=O)C1CCCN1C(=O)OCc1ccccc1 (configuration not stated) | 21.1% |  |

| SMILES | activity change, positive = activation | Potency |
| --- | --- | --- |
| Cc1ccc(S(=O)(=O)NC(=O)O[C@@H]2C(=O)c3cc(Br)ccc3O[C@H]2c2ccc3c(c2)OCO3)cc1 | 43.2% |  |
| CCCOC(=O)c1ccc(Oc2cn[nH]c2-c2ccc(OCC)cc2O)cc1 | inactive: -44.8% |  |
| Cc1ncsc1C(=O)NCc1ccc(N2CCCC2=O)cc1 | inactive: -43.9% |  |
| CC(=O)N1CCN(C(C)=O)C1c1ccccc1 | 46% |  |
| CCc1ccc(C(=O)Cn2ncc(Cl)c(Cl)c2=O)cc1 | -67.7% |  |
| CN1CCc2nc3sc(C(=O)C45CC6CC(CC(C6)C4)C5)c(N)c3cc2C1 | -72.3% |  |
| COc1ccc(-c2[nH]c(-c3cccc(OC)c3)nc2SCC(=O)NC2CCCC2)cc1 | 32.6% |  |
| COc1cc(NS(=O)(=O)c2ccc(OC)c(C)c2C)c(OC)cc1Cl | -56.9% |  |
| CCc1ccc(S(=O)(=O)N(C(=O)Oc2ccccc2)c2ccc3oc(C)c(C(=O)OC)c3c2)cc1 | inactive: -32.6% |  |
| Cc1cc(C(=O)Nc2ccc(S(=O)(=O)Nc3nccs3)cc2)c(C)o1 | 31.6% |  |
| O=C(Cn1cc([N+](=O)[O-])cn1)Nc1ccn(Cc2c(F)c(F)c(F)c(F)c2F)n1 | inactive: -32.7% |  |
| Cc1nc2ccccn2c1C(=O)N=Nc1c(O)n(CCC(C)C)c2ccccc12 | inactive: -74.7% |  |
| Cc1cccc(S(=O)(=O)Nc2cccc3c2C(=O)c2ccccc2-3)c1 | inactive: -68.1% |  |
| COc1ccc2cc3cc(C(=O)NC(C)C)oc3nc2c1 | 39.7% |  |
| O=C(/C=C/c1ccc(O)cc1)c1ccc(NC2=C(N3CCCCC3)C(=O)c3ccccc3C2=O)cc1 | inactive: -98.8% |  |
| Nc1c(C(=O)N/N=C/c2cccnc2)cnn1-c1ccccc1 | 44.9% |  |
| CCN1C(=O)c2c(C)nc3ccccc3c2C1=O | 56.1% |  |
| CCOC(=O)Cc1csc(NC(=S)NC(=O)c2ccccc2Br)n1 | -44% |  |
| N#CC1=C2SC=C(c3ccc(Br)cc3)N2CCCC1=O |  | active: 15.8 µM |
